## Library screening results

The chains behind the UniProt entries cited, without tags or fusion partners.
UniProt E9BF75, entry or part of it: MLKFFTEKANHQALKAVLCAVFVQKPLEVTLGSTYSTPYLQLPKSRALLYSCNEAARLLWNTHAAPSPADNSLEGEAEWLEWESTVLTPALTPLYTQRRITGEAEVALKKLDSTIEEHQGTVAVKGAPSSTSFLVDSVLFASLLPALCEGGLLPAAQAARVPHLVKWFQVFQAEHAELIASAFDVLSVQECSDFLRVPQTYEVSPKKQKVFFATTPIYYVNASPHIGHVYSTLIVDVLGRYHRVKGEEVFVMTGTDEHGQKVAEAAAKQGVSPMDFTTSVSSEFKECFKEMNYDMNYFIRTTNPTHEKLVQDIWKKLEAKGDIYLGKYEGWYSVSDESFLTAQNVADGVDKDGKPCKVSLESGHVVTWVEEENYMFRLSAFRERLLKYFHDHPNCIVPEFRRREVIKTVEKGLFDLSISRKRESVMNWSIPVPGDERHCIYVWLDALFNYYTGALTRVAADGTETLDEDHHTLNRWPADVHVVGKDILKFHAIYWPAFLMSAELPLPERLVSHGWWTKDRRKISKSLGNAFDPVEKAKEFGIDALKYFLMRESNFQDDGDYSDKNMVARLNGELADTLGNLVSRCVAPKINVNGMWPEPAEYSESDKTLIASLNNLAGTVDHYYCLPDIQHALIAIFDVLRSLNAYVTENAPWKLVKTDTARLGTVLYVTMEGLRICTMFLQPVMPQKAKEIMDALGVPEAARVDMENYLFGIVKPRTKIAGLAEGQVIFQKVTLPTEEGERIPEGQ

From ChEMBL document CHEMBL3988442, “University of Dundee, Small-Polar-MMV Screening Library” (2021).

A: 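Methionyl-tRNA synthetase (putative), Leishmania donovani (UniProt E9BF75). Primary screen of methionyl-tRNA synthetase; the read-out is not stated. The test concentration is not given. Values are per cent inhibition. Of about 68,000 compounds tested this way, about 24 (0.035%) reached 50% or more in at least one test.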
B: 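Assay on Mycobacterium tuberculosis, filed only as a heat shock assay from Cornell; the read-out is not stated. The concentration is filed as 10 mM, unlikely as a test dose, so the dose is not known. Higher reads as stronger inhibition (inferred: compounds with an IC50 in retests scored well above the rest). Of about 69,000 compounds tested this way, about 930 (1.4%) reached 50% or more in at least one test.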

All values are in %.
The record does not define 0% and 100%; most values in the screen are far below 50% and negative numbers occur (in some assays of this library far below -100).
Compounds were drawn at random from those tested, without regard to their results.
A dash means the value is not listed here; it may have been measured.

compound | A | B
CCc1ccc(S(=O)(=O)Nc2cc(C(=O)O)c(F)cc2F)s1 | 2.362% | 2.653%
Cc1noc(C)c1CN1C[C@@H]2OCCN(Cc3cnn(C)c3)[C@@H]2C1 | 7.904% | -
Cc1cccc(NC(=O)Nc2c[nH]c(=O)[nH]c2=O)c1C | 12.66% | 9.124%
CC1=N[C@@]2(CC[C@@H]3CN(Cc4ccccc4C)C[C@@H]32)C(=O)N1CC1CC1 | 6.09% | -
CCCS(=O)(=O)N1CCC2(CN(c3cnn(C)c3)C(=O)CN2C)C1 (stereo not shown) | 1.905% | -
O=C1N(Cc2cccc(F)c2F)CCCC1(O)CNCc1ccccn1 (stereo not shown) | - | 8.726%
[H][C@@]12COC[C@]1(COc1ccc(C#N)cn1)CN(c1cc(OC)ncn1)C2 | - | -0.2845%
COCCN1CCN(Cc2c(C)noc2C)Cc2ccc(C)nc21.O=C(O)C(F)(F)F.O=C(O)C(F)(F)F | - | -23.16%
COCc1ncc(-c2nccn2CCn2cnnc2)cn1 | 16.51% | 8.755%
CS(=O)(=O)NCc1cn2c(n1)CN(Cc1ccoc1)CC2.O=C(O)C(F)(F)F | - | 2.388%
CN1CCCN(C(=O)c2nc3c(s2)CCCN3CC2CC2)CC1 | -1.253% | -26.42%
O=C(c1cnccn1)N1CCN(Cc2csc(-c3ccccc3)n2)CC1 | -0.9524% | 0.4112%
CCc1ccc(C2COCCN2C(=O)NCc2cccc(C#N)c2)o1 (stereo not shown) | 22.3% | 5.41%
Cc1nc2c(c(=O)[nH]1)CCN(Cc1ccc3c(c1)CCCN3C)C2 | 13.52% | 9.488%
CNC(=O)c1cccc(NC(=O)CN2CCCN(S(C)(=O)=O)CC2)c1 | 15.11% | -1.328%
Cc1noc(COCC(=O)N2CCCCC2c2nccs2)n1 (stereo not shown) | 13.83% | -0.8443%
CN1CCC(c2nc3ccc(-c4cccc(F)c4)cn3n2)CC1 | 12.64% | -
Oc1nc(N2CCOCC2)nc2c1CCN(Cc1ccccc1)CC2 | 15.25% | -16.15%
CS(=O)(=O)N1CCC2(CC1)COC(COc1ccccn1)C2.O=C(O)C(F)(F)F (stereo not shown) | - | -12.81%
Clc1cccc(-c2cccc(N3CCC(NC4CCOCC4)CC3)c2)c1 | 15.89% | 35.02%
[H][C@]12CCN(C(=O)N3CCCC3)C[C@@]1([H])OCCN(S(C)(=O)=O)C2 | - | 28.77%
Cn1ccc(C(=O)N2CCC3(CCN3c3ncccn3)C2)n1.O=C(O)C(F)(F)F (stereo not shown) | - | 24.82%
Cc1ccc(-c2snnc2C(=O)NCCCO)cc1 | 15.01% | -6.786%
CC1(C(=O)NCc2cccc(C(F)(F)F)c2)CCOCC1 | 2.857% | 8.011%
CN(Cc1nc(Cc2cccc(C(F)(F)F)c2)no1)C1CCCCC1 | 11.75% | -8.646%
COC(=O)NCC(=O)NCC(C)(C)c1cccc(C(F)(F)F)c1 | 13.92% | 3.452%
N#Cc1ccc(NCC(O)c2ccco2)c(C(F)(F)F)c1 (stereo not shown) | 5.758% | 16.02%
N[C@H]1CN(S(=O)(=O)Cc2ccccc2)C[C@@H]1C1CC1 | 9.887% | 5.997%
CN1CCc2ccc(NCc3cccs3)cc2C1=O | 11.38% | 1.516%
O=C(Nc1ccccc1Cn1cncn1)C1CCN(C2CCCCC2)C1 (stereo not shown) | 13.12% | 4.888%
CC(C)CCc1nc(CNCC2CCCN2c2cccnn2)cs1 (stereo not shown) | 21.31% | 75.49%
CS(=O)(=O)CCNC(=O)N(Cc1ccoc1)C1CCCCC1 | 14.51% | -2.741%
O=C(NCC1Cn2nnc(-c3ccoc3)c2CO1)c1ccc[nH]1 (stereo not shown) | 9.15% | -18.15%
Cc1cc(=O)c(C(=O)N2CCN(C)c3ccccc3C2)c[nH]1 | 18.38% | 0.3119%
COCCN1CCC(CNC(=O)c2cc(C)cc(C)c2)C1 (stereo not shown) | 13.39% | -36.74%
CN(C)c1ccc(C(=O)N2CCCC(n3cccn3)C2)cn1 (stereo not shown) | 8.197% | -26.5%
COC(=O)COn1c(SCC(=O)OC)nc2ccccc2c1=O | 1.166% | 1.964%
Nc1cc(N2CCCC(Cc3ccc(F)cc3F)(C(=O)O)C2)ncn1 (stereo not shown) | 10.07% | 40.55%
Cn1cnc(S(=O)(=O)N2CCOCC2)c1Cl | 3.804% | -1.938%
O=C(NCC(O)c1ccc(F)c(F)c1)c1cccnc1OCC(F)(F)F (stereo not shown) | 20.5% | -28.32%
CCc1nc(-c2cncnc2C2CCCNC2)no1 (stereo not shown) | 12.81% | -
Cc1nnc([C@H]2C[C@@H]3CCN(C(=O)C4CCOCC4)C[C@H]3O2)[nH]1 | 17.03% | -

Some entries from above, unchanged:

- Cc1cc(=O)c(C(=O)N2CCN(C)c3ccccc3C2)c[nH]1 : A: 18.38%; B: 0.3119%
- COC(=O)COn1c(SCC(=O)OC)nc2ccccc2c1=O : A: 1.166%; B: 1.964%
- O=C(Nc1ccccc1Cn1cncn1)C1CCN(C2CCCCC2)C1 (stereo not shown) : A: 13.12%; B: 4.888%
- Oc1nc(N2CCOCC2)nc2c1CCN(Cc1ccccc1)CC2 : A: 15.25%; B: -16.15%
- COC(=O)NCC(=O)NCC(C)(C)c1cccc(C(F)(F)F)c1 : A: 13.92%; B: 3.452%